Values of other authors in US8039505B2, “Compounds for modulating T-cells” (University of Utah Research Foundation, priority 2007, dated 2011).
For at least one compound, name, drawing or mass did not settle the structure.

Tested on: T cells from the thymus of lck::eGFP transgenic zebrafish
Conditions: Langenau et al. 2004; cited from earlier work

C[C@@H]1C[C@H]2[C@@H]3CCC4=CC(=O)C=C[C@]4(C)[C@@]3(F)[C@@H](O)C[C@]2(C)[C@@]1(O)C(=O)CO [dexamethasone]
Ablation of zebrafish T cells: ablated
